# In patent EP0210342A2, “Medicament containing pyridinones having an antithrombotic activity” (Dr. Karl Thomae GmbH, priority 1985, dated 1987):
# System: Thrombusbildung
# Test: Stenosis-induced spontaneous coronary thrombus formation in anaesthetised dogs (shake loose, Folts)
# Assay type: in vivo, Hunde
# Settings: x ± SE; after stenosis, before substance
row,SMILES,"Fluß im Ramus circumflexus der Arteria coronaria sinistra, Nach Stenose"
1,"COc1ccc2nc(-c3ccc(OCC(O)CNC(C)(C)C)cc3)n(C)c(=O)c2c1 (single isomer, unassigned; (-)) [Verbindung C, (-)-2-2[4-(2-Hydroxy-3-tert.butylamino-propoxy)-phenyl]-3-methyl-6-methoxy-3,4-dihydro-chinazolin-4-on]",19 ± 3 mL/min
2,"CC(C)NCC(O)COc1ccc(CC(N)=O)cc1 (centres unmarked) [Atenolol, reference compound]",15 ± 3 mL/min
3,"CC(C)NCC(O)COc1cccc2ccccc12 (centres unmarked) [Propranolol, reference compound]",23 ± 4 mL/min
4,"COc1ccc2cc(-c3ccc(OCC(O)CNC(C)(C)C)cc3)n(C)c(=O)c2c1 (centres unmarked) [Verbindung A, 2-Methyl-3-[4-(2-hydroxy-3-tert.butylamino-propoxy)-phenyl]-7-methoxy-isochinolin-1-(2H)-on]",24 ± 4 mL/min
5,"COc1ccc2nc(-c3ccc(OCC(O)CNC(C)(C)C)cc3)n(C)c(=O)c2c1 (centres unmarked) [Verbindung B, 2-[4-(2-Hydroxy-3-tert.butylamino-propoxy)-phenyl]-3-methyl-6-methoxy-3,4-dihydro-chinazolin-4-on]",15 ± 4 mL/min
